In all, about 52,000 sequences went through this assay and about 210 (0.4%) were called active.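 The calls were made as follows: active = gene whose silencing raises cell survival under the drug, median off-target-corrected z-score across its silencing RNAs 2 or more; inactive = the rest.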 The list shows a part of the results.

This assay in a line: Resistance to Poly (ADP-Ribose) Polymerase inhibitor: Gene Identification via Genome-wide siRNA Screen. The settings on record: mouse BRCA2 R2336H ES cells, olaparib, CellTiter-Glo viability; hits give high values. An outline of the steps:
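Mouse BRCA2 R2336H ES cells were reverse-transfected with siRNA (20 nM final), treated at 48 h with 500 nM olaparib, and read by CellTiter-Glo after 72 h. Scores: MAD-based z per siRNA, median per gene, seed off-target correction.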
For orientation: In ATP-based viability assays light output follows the ATP content of the culture.
In the case of “GCGAUAAAACCCUAAAGCUTT against 1500041N16Rik”, the z-score is inactive: 0.664.

With GCCUAACAUUGAUAUGUUGTT against Abhd9, the z-score is inactive: 1.06.

Consider GGUGAAGGCCAAUACAUAUTT against Gatm, for which the z-score was inactive: 0.628.

Consider “GGCUAUGAAAGUGACAAUCTT against 5730449L18Rik”, for which the z-score was inactive: -1.56.

Regarding “GGAACAGCUGAACUGCUCATT against D15Ertd735e”, the z-score was inactive: 0.882.

Turning to GGUACCUUCAAAGAAUUGUTT against Snx1, the z-score is inactive: 0.481.

For CCUUGCUGUUCUACUUUGCTT against Olfr1309, the z-score is inactive: -1.95.

For GCAGUAGAUCCUGAUUUUGTT against MGC92959, the z-score is inactive: 0.827.

As to GGCCAAGCUAUAAGAAAUGTT against Cntnap2, the z-score is inactive: 1.97.

On to GGAAAAAGCAAAUUGAGGATT against Uchl1, for which the z-score was inactive: 2.65.

With GGACAAUAUCAGAAAGAGUTT against Purg, the z-score is inactive: -0.519.

As to GGUAAAAACUUUCCUUUAGTT against Rds, the z-score is inactive: 0.0785.

On to GGAUUAUGGCUUCAUUAAATT against Glmn, for which the z-score was inactive: 0.468.

For the sequence GGUUUUCUAUGGAAGAGAUTT against Nope, the z-score is inactive: 0.387.

As for GGAUUCUUGCACUAUUUAGTT against BC062951, the z-score is inactive: 0.0219.

For GGAAAUUGCACCUUUAAAGTT against Rnf130, the z-score was inactive: 1.24.

GCCGAGAUGGUCAUAAGCUTT against Rbbp5: the z-score was inactive: -0.363.

Take GGAAUCUCCCACUGUUUCCTT against Gpx2: the z-score is inactive: -0.533.

Consider GGCUGACAGGGACCAAUAUTT against Trf, for which the z-score is inactive: 0.372.

For the sequence GGAAGACGAAGAGUUUGGATT against Aqp5, the z-score is inactive: -0.427.

GGAACUCCGAGUAGACGUGTT against Smyd1: the z-score was inactive: 0.336.

For GCAACAAUGAGAGACCACATT against Htr5a, the z-score was inactive: 1.34.

As to GGCAGUGGUGAUAUACCAATT against Lpd, the z-score is inactive: -0.469.

Consider GGCUGUGGUGCUCAAUAAGTT against Clstn2, for which the z-score is inactive: 0.495.

Turning to GGAAAUCGCAUUUAUUGUUTT against Olfr1090, the z-score was inactive: -0.171.

As for GGAGCAAGAAAAGAAAGUGTT against Zfp354c, the z-score is inactive: -0.305.

In the case of GGGUUAUGUGUUGAGCUCCTT against Bub3, the z-score is inactive: -1.33.

On to GGAGUAUUAUGAAGUGUUGTT against Aip, for which the z-score was inactive: -0.233.

Consider GGGUGCUGUCAACAUAUGATT against Gabrq, for which the z-score is inactive: -0.0405.

In the case of “GGCAAUACGUGAAGAAAAATT against B930060C03”, the z-score is inactive: -0.926.

With “CCUAGUUGAUACCUGUGGUTT against 1110055L24Rik”, the z-score is inactive: 0.707.

As for GGACGAUUUGGGUCACCUUTT against Rabep1, the z-score is inactive: -3.35.

GCCUUCCUUUUUGUCAUUATT against Olfr1387: the z-score was inactive: 1.62.

As for “GGAUUCGUCUAGGCUCGUATT against 5830461H18Rik”, the z-score was inactive: -1.61.

In the case of GGUAGGGACCUAUCCUUGGTT against Tce4, the z-score was inactive: -0.551.

For the sequence GCUCUCAUACUUUGAACCUTT against Pank3, the z-score is inactive: -0.333.

On to “GUGUGCUGUCGAUGUGUCUTT against 4931422A03Rik”, for which the z-score is inactive: -0.485.

Consider GCCAGUGUUAUCCAGGACUTT against Cggbp1, for which the z-score was inactive: -1.63.

In the case of CGUGGUAGGUCCCAUUAGATT against Usp13, the z-score is inactive: -2.1.

As for GGAAGACCUUCAGAGAGAATT against Ell2, the z-score was inactive: -0.205.

“GGUACAGGACCAAGAAUGGTT against 4933437N03Rik”: the z-score is inactive: -1.49.

Take GGCGUAAGGCAAUGUGGGUTT against Ush3a: the z-score is inactive: -1.07.

As for GGAUUUGUUUGCUUAGCUGTT against Ctbp1, the z-score was inactive: -0.795.

Consider GGUGAUGGUGAACAAGAAATT against Lgals9, for which the z-score is inactive: -0.422.

As to UGCUGGUGCCUGAUGACCATT against Defcr, the z-score was inactive: -2.89.

For the sequence “GAUAGGGAAUGCCAUACCGTT against G630024C07Rik”, the z-score is inactive: 0.374.

Consider CCUCGAACCAAGAUGUUCATT against Pdzrn3, for which the z-score was inactive: -2.02.

On to GACUCUAAACCUAGCAGCGTT against Basp1, for which the z-score is inactive: 1.8.

With “GGUCUUUGGAAAAGACACUTT against 9130427A09Rik”, the z-score is inactive: 1.23.

On to GCUGAAGGGUCUCGUAUUGTT against Hes2, for which the z-score was inactive: 0.234.

With CCGCCGAUGAGUUUGUUAATT against Hsd17b3, the z-score is inactive: 0.907.

For the sequence “GGGAUGCAUUACUUACACATT against B230120H23Rik”, the z-score is inactive: 0.55.

Consider “GGCACAAGAUUAUUUAAGUTT against 2010300G19Rik”, for which the z-score is inactive: 0.805.

On to “GGAAUGGUGAUGGAGUGGATT against 1700113I22Rik”, for which the z-score was inactive: 0.467.

In the case of GGAUUUUUAUAACCCACUGTT against Cldn9, the z-score is inactive: -0.307.

For GGGCUGAUGCUUAAACAAATT against V1rg1, the z-score is inactive: 0.475.

“GGUCAUGAUCAAGACACAUTT against 9330187M14Rik”: the z-score is inactive: -0.98.

With GGAAGCAGAGCAGCUGUUUTT against Skiv2l, the z-score was inactive: 0.449.

As to GGUUGUCUUGACACCCUACTT against Tnfrsf1b, the z-score is inactive: 1.61.

With GCAAUUUCCUGUGUUAAUATT against Rab3c, the z-score is inactive: 0.498.

For “GUUACAAAACAUCGGUGGGTT against 2210413P10Rik”, the z-score was inactive: -0.457.

As to UGAUAAGGCAGCCGUAUCCTT against Amelx, the z-score is inactive: -0.6.

In the case of GGCAGUCACUGGCUAAAUGTT against Ugt2a1, the z-score is inactive: 0.831.

In the case of “GGUCAAUAAAGAGUGUGAATT against 2200001I15Rik”, the z-score was inactive: -2.26.

Regarding GGUCUGACAUUACUCAAAUTT against Rad51, the z-score is inactive: 0.335.

As for “GGUCUGGAGACAAUCAUCATT against 9930039A11Rik”, the z-score is inactive: -0.129.

Consider “GGUUCACUCCUGAUACCACTT against 5330420D20Rik”, for which the z-score is inactive: 1.33.

In the case of “GGACUUUUGGAUAACUUAGTT against 1200008A14Rik”, the z-score was inactive: -0.788.

On to GGACAAUGGUUCCUUGGAUTT against Cdc25c, for which the z-score is inactive: 0.0582.

For GGCCAUUCACGUUUUACUCTT against MGC58970, the z-score is inactive: 0.067.

GGUAUCGACCACAGAUCAUTT against Plxnd1: the z-score is inactive: 0.52.

Turning to GGUGCUCAUGGAGAAGUUATT against Mlstd1, the z-score was inactive: -0.524.

GCGGCAUCUACUUAAUAUGTT against CRG-L1: the z-score was inactive: 0.109.

Take GGAUUAUGGAAAGAACUUUTT against Sort1: the z-score is inactive: 0.111.

In the case of GGUACUAAAUAAAAGACCGTT against Dsc2, the z-score is inactive: 2.41.

On to GCACGCCUCUUUCAGCUAUTT against Pitx3, for which the z-score was inactive: 0.612.

Consider “GGAGCCUCAGGUCCAAAUGTT against 4931417G12Rik”, for which the z-score was inactive: -1.39.

With “CCCACUUUGAAAAAGACUCTT against 4930486G11Rik”, the z-score is inactive: 0.508.

As for CGAUUUAAUGUCAACAUUGTT against Arhgap5, the z-score was inactive: -0.531.

In the case of GUGGGAUUCCUGUACAAAUTT against Olfr1118, the z-score is inactive: 0.247.

As for CGCUCUGUUAAUGCAGGAUTT against Papss1, the z-score was inactive: -0.134.

As for CCCACUGAUGCUAUUUCUATT against Rad1, the z-score is inactive: -2.33.

In the case of GGCAUUCCAGAGAAAGCGUTT against F3, the z-score was inactive: 0.611.

Take “GCAGCUAGAUAAUUAACUATT against 9030605H24Rik”: the z-score is inactive: 0.0531.

As to GGCCUGUAUCACUUUUAUCTT against Pcsk2, the z-score is inactive: 0.392.

For the sequence GCACAAGACCUGCAUACUATT against Ttc5, the z-score was inactive: 0.16.

Take CCACUCCGAAACCAUCAGCTT against Accn1: the z-score is inactive: 0.749.

Consider GGACAAGCUGCAUCUGUUUTT against Rgma, for which the z-score is inactive: -1.2.

As to GCACCCAUAUCAACGAGGUTT against Olfr924, the z-score is inactive: 1.41.

As to GGUACAACAAAUCUUAUCATT against Abca6, the z-score is inactive: 0.299.

As for GGUGGAAUUCAUUUUGACATT against Dnajb6, the z-score is inactive: 0.397.

For the sequence GGACUAUGCCAGGAAACUGTT against Pgls, the z-score is inactive: -0.24.

Take GGCAUAAACCUUCUUGCUCTT against Ccl22: the z-score was inactive: 0.282.

Take CCUCUCCCUAAUUAUCUUUTT against Dscr6: the z-score was inactive: 1.37.

For the sequence GCCACUGAGAUGUGACGAATT against Pbp2, the z-score was inactive: 0.0135.

For GAAUCGGAGGACAAAAUACTT against Emx1, the z-score is inactive: -0.0963.

Consider CCCAGAACGGGAUGAUUCUTT against Trex2, for which the z-score was inactive: -0.513.

On to GGGAUCGUCCAGAUCUAAUTT against Apobec3, for which the z-score is inactive: 0.404.

Turning to GGAACUGGGUCCUCAUUCCTT against Capn1, the z-score was inactive: -0.0333.

Take GGAGAUACCCUCGAGUAUATT against Lrrtm3: the z-score was inactive: -0.474.

In the case of CCGACCAGAAGCUUUAAAGTT against Sepx1, the z-score was inactive: -0.448.

With CGGAUGCGACAAAAAUCACTT against Il4, the z-score is inactive: 1.18.

With GGUAAAGACUGGAUGGCUATT against Art5, the z-score is inactive: 1.41.

For the sequence GGAGCAACAACUUAAAUGUTT against Slc16a4, the z-score was inactive: 0.605.

These data come from PubChem BioAssay AID1347423 (Functional Genomics Laboratory (NCATS/FGL), 2020).
